Some results were stated once for a whole list of compounds, not compound by compound.
What was measured:
[1] = tested on: A2058 melanoma, Lewis lung carcinoma, MCF-7, MDA-MB-231, BXPC3 tumor blood vessel permeability; experiment: Miles assay on tumor-bearing mice (Example 3); format: in vivo; conditions: vs saline-treated control tumors
skin vessel permeability = experiment: Miles vascular permeability assay (Example 3); format: in vivo, SCID mice; conditions: VPF/VEGF injection sites
Procedure: SCID mice were injected subcutaneously (s.c.) with TNP-470 or HPMA copolymer-TNP-470 (30 mg/Kg TNP-equiv.) for three days, with Y27632 (50 nM s.c.) for 11 days, with angiostatin (200 mg/kg/day s.c.) for five days, or with saline (250 μl s.c.) for 5 days (n=12) prior to performing the Miles assay ([…] et al., 1996; Miles and Miles, 1952; Streit et al., 2000). Briefly, Evan's blue dye (100 μl of a 1% solution in 0.9% NaCl) was injected intravenously (i.v.) into mice. After 10 minutes, 50 μl of human VEGF165 (1 ng/μl), PAF (100 μM), CNF-1 (100 ng), histamine (1.2 μg/ml) or PBS (50 ul) were injected intradermally into the pre-shaved back skin. After 20 minutes, the animals were euthanized and an area of skin that included the blue spot resulting from leakage of the dye was removed. Evan's blue dye was extracted from the skin by incubation with formamide for 5 days at room temperature, and the absorbance of extracted dye was measured at 620 nm using a spectrophotometer. The unpaired Student t test was used for statistical analysis.

Row | Molecule | inhibition of Evan's blue extravasation into tumors [1] | pretreatment required for inhibitory effect (skin vessel permeability)
1 | CO[C@@H]1[C@H](OC(=O)NC(=O)CCl)CC[C@]2(CO2)[C@H]1[C@@]1(C)O[C@@H]1CC=C(C)C [TNP-470] | 40-90% | at least 24 hours
2 | angiostatin | 40-90% | 

— US20050203013A1, “Methods for inhibiting vascular permeability” (priority 2002, published 2005)
